Results from PubChem BioAssay AID1347076 (National Center for Advancing Translational Sciences (NCATS), 2019).
Hit rate of the full screen: of about 400,000 compounds, about 13,000 (3.2%) were called active. The shares of active, inactive and inconclusive entries below differ from those in the screen. Calls follow the shape of the dose curve; as a rule, active = well fitted cell-killing curve with a large enough effect; inconclusive = small, poorly fitted or top-dose-only effect, or effect the other way; inactive = flat fitted curve, though single readings scatter. Where the call is inconclusive, the potency comes from a doubtful curve fit.

Experiment: qHTS assay for MDR1-selective chemotherapeutics: Primary screen using the drug-selected MDR subline cells KB-V1; also: nearly all actives have a fitted effect of over 60% in size
Settings: KB-V1 MDR cells viability, CellTiter-Glo, 72 h; activity change, negative = cytotoxicity: at 46.1 µM (top of the series)
Summary of the method: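 Cytotoxicity via CellTiter-Glo luminescence after 72 h compound exposure at 37 degrees C. Cells: drug-selected KB-V1 line, DMEM phenol-red free plus 10% FBS. Compounds tested at multiple concentrations; normalized data fitted to concentration-effect curves.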
% is scaled to controls: 0 for no effect and ±100 for the full control effect; potency is read from the fitted curve at half-maximal effect.

Row | Compound | Potency | activity change, negative = cytotoxicity
1 | Cc1nnsc1C(=O)NNC(=O)c1cccc2ccccc12 | inconclusive: 0.58 µM [rising, full curve, poor fit] | –
2 | CSc1nc2ccccc2n1C(=O)NC1CCCCC1 | inconclusive: 29.1 µM [rising, single point] | –
3 | COc1ccc(S(=O)(=O)N2CCC[C@H]2C(=O)N2CCC[C@H]2C(=O)NCc2ccccc2)cc1C | inactive | –
4 | Cc1cc(C(=O)Nc2cccc3c2O[C@@H](CN(C)S(C)(=O)=O)[C@H](C)CN([C@@H](C)CO)C3=O)n(C)n1 | inconclusive: 0.0073 µM [rising, full curve, poor fit] | –
5 | CCCc1nn2c(=O)cc(COC(=O)c3ccco3)nc2s1 | inconclusive: 29.1 µM [rising, partial curve, poor fit] | –
6 | Cc1nnc(SCC(=O)Nc2nccs2)n1N | inconclusive: 20.6 µM [rising, single point] | –
7 | C#CCOCCOCCOCCNc1nc(N2CCN(C(=O)[C@H]([C@@H](C)CC)n3cc(CCC(=O)O)nn3)CC2)nc(N2CCN(C(=O)[C@H](CCCCN)n3cc(CCCC)nn3)CC2)n1 | inconclusive: 29.1 µM [rising, single point] | –
8 | C=CCN1C(=O)C2(OCCCO2)c2cc(CCCC)ccc21 | inconclusive: 7.31 µM [cytotoxic, partial curve, poor fit] | –
9 | CC1CCCC(C)N1C(=O)Cn1cnc2cc([N+](=O)[O-])ccc2c1=O (configuration not stated) | inconclusive: 18.4 µM [cytotoxic, single point] | –
10 | CC(C)CNC(=S)NNC(=O)c1ccccc1OC(F)F | inconclusive: 16.4 µM [cytotoxic, partial curve, poor fit] | –
11 | COc1ccc(Cl)cc1NC(=O)CN(C)Cc1cccs1 | inactive | –
12 | COc1ccc(S(=O)(=O)N2CCOCC2)cc1NC(=O)CSc1nnc2n1CCCCC2 | inconclusive: 29.1 µM [rising, single point] | –
13 | CC(C)(C)c1ccc(-c2nc(NCc3cccnc3)c3ccccc3n2)cc1 | inconclusive: 23.1 µM [cytotoxic, partial curve] | –
14 | COc1ccccc1CC(=O)NC1CCCCCC1 | inactive | –
15 | CCOC(=O)Cn1c(=O)n(CC2CCCO2)c2nc(-c3ccc(CC)cc3)nc(C(N)=O)c21 (configuration not stated) | inconclusive: 18.4 µM [cytotoxic, partial curve] | –
16 | c1ccc(-c2cnc(SCCN3CCOCC3)n2CC2CCCO2)cc1 (configuration not stated) | inactive | –
17 | CCCCN(C)S(=O)(=O)c1ccc(C(=O)Nc2nnc(-c3ccco3)o2)cc1 | inconclusive: 6.51 µM [cytotoxic, full curve] | –
18 | O=C1NC[C@@H](CCCCN2CCN(CCc3ccc(O)cc3)C(=O)C2=O)N(CC2CCCCC2)C1=O | inactive | –
19 | COc1ccccc1N1CC(O)=C(c2nc3ccccc3s2)C1=N | active: 10.3 µM | –
20 | Cc1ccccc1CNC(=O)c1ccc(CN2CC(=O)N3CCCCC3C2=O)cc1 (configuration not stated) | inactive | –
21 | COCc1cc(C)nc2sc(C(=O)N3CCCCC3)c(N)c12 | inconclusive: 16.4 µM [cytotoxic, single point] | –
22 | CCCCCCN1C[C@H](n2cc(COC(=O)c3ccccc3)nn2)[C@@H](O)C[C@@H]1c1ccc(C)cc1 | inconclusive: 20.6 µM [cytotoxic, single point] | –
23 | COc1ccc(-c2cc(C3CCN(C(=O)OC(C)(C)C)CC3)[nH]n2)cc1 | active: 13 µM | –

Pulled one by one from above, 3 records:
Row | Compound | Potency | activity change, negative = cytotoxicity
5 | CCCc1nn2c(=O)cc(COC(=O)c3ccco3)nc2s1 | inconclusive: 29.1 µM [rising, partial curve, poor fit] | –
6 | Cc1nnc(SCC(=O)Nc2nccs2)n1N | inconclusive: 20.6 µM [rising, single point] | –
18 | O=C1NC[C@@H](CCCCN2CCN(CCc3ccc(O)cc3)C(=O)C2=O)N(CC2CCCCC2)C1=O | inactive | –

Next results follow.

Row | Compound | Potency | activity change, negative = cytotoxicity
24 | CC(=O)Nc1cc(C(=O)Nc2ccc3c(c2)N(C)C(=O)c2ccccc2S3)ccc1C | inconclusive: 29.1 µM [cytotoxic, single point] | –
25 | CC1(C)Cc2ccccc2C(/C(C#N)=N/O)=N1 | inactive | –
26 | CC(=O)c1ccc(NC(=O)C2CC(c3ccc(F)cc3)=NO2)cc1 (configuration not stated) | inactive | –
27 | COc1ccc(CNC(=O)C(=O)Nc2cc(Cl)ccc2OC)cc1 | inconclusive: 29.1 µM [cytotoxic, single point] | –
28 | C/C(=N\NC(=O)c1nnn(-c2nonc2N)c1C)c1ccc(-c2ccccc2)cc1 | – | inconclusive: 35.3%
29 | CCc1ccc(NC(=O)c2ccnc(C(C)(C)C)c2)cc1 | active: 20.6 µM | –
30 | Cn1cccc1Cc1nnc(SCC(=O)NCc2ccco2)n1CCc1ccccc1 | inactive | –
31 | CCOC(=O)C1CCN(C(=O)CNS(=O)(=O)c2ccc(Br)s2)CC1 | inconclusive: 14.6 µM [cytotoxic, partial curve] | –
32 | C=CCN(CC=C)C(=O)c1ccc(OC2CCN(S(=O)(=O)N(C)C)CC2)cc1 | active: 20.6 µM | –
33 | CN1C(=O)CC(NNC(=O)c2ccc(Cl)cc2)C1=O (configuration not stated) | inconclusive: 35.5 µM [rising, partial curve, poor fit] | –
34 | Cc1cc(N2CCCC(C(=O)Nc3cccc(Cl)c3)C2)n2ncnc2n1 (configuration not stated) | inconclusive: 16.4 µM [cytotoxic, single point] | –
35 | Cc1ccc(S(=O)(=O)c2nnn3c2nc(N2CCC(C(N)=O)CC2)c2cc(Cl)ccc23)cc1C | inconclusive: 18.4 µM [rising, partial curve, poor fit] | –
36 | COc1ccc(CC(=O)NNc2ncnc3c2cnn3C)cc1 | inconclusive: 29.1 µM [rising, single point] | –
37 | O=C(CN1CCC(C(O)(c2ccccc2)c2ccccc2)CC1)Nc1ccccc1 | inconclusive: 20.6 µM [cytotoxic, single point] | –
38 | CSc1nc(SCC(=O)NC(c2ccccc2)c2ccccc2)c2c3c(sc2n1)CN(C)CC3 | inconclusive: 9.2 µM [cytotoxic, partial curve] | –
39 | CCn1c(=O)n(CCOC)c(=O)c2c3c(sc21)CCCC3 | inconclusive: 18.4 µM [cytotoxic, partial curve] | –
40 | CCOC(=O)CN1C(=O)C(=O)c2cc(C)ccc21 | inconclusive: 32.6 µM [cytotoxic, single point] | –
41 | COc1ccc(/C=N/NS(=O)(=O)c2ccc(C)cc2)cc1OC(=O)c1ccccc1 | inconclusive: 18.4 µM [cytotoxic, single point] | –
42 | Cc1nc2c(c(C)nn2C(C)(C)C)c(C)c1CCC(=O)Nc1ccc(Br)cc1Br | inactive | –
43 | COc1ccc(CCn2c(-c3ccc(C(C)(C)C)cc3)n[nH]c2=S)cc1OC | inconclusive: 8.2 µM [cytotoxic, partial curve] | –
44 | CCCCC[n+]1ccn(C2=C([O-])c3ccccc3C(=O)/C2=N\S(=O)(=O)c2ccc(Cl)cc2)c1 | inconclusive: 0.58 µM [rising, full curve, poor fit] | –
45 | CCCNC(=O)NC(=O)CSc1nc2ccccc2c(=O)n1Cc1ccncc1 | inconclusive: 7.31 µM [cytotoxic, partial curve] | –
46 | CCn1c(COc2ccccc2)nnc1SCC(=O)NCc1ccco1 | inconclusive: 29.1 µM [rising, single point] | –

Row | Compound | Potency | activity change, negative = cytotoxicity
47 | CNCC[C@H](Oc1cccc2ccccc12)c1cccs1 | inconclusive: 20.6 µM [cytotoxic, single point] | –
48 | CC(C)(C)c1ccc(C(=O)c2c[nH]c(C(=O)NCCc3ccccn3)c2)cc1 | inconclusive: 2.31 µM [cytotoxic, partial curve, poor fit] | –
49 | COc1cccc(-n2nnnc2SCC(=O)Nc2ccc(C(C)=O)cc2)c1 | inactive | –
50 | COc1ccc(S(=O)(=O)N(CCc2ccccc2)CC(=O)NCc2ccccc2)cc1OC | inconclusive: 3.66 µM [cytotoxic, full curve, poor fit] | –
51 | CCc1ccc(NCc2cc3ccc(OC)cc3n(CC(=O)Nc3cccc(Cl)c3C)c2=O)cc1 | inactive | –
52 | COCCn1cnnc1SCC(=O)Nc1cccc(S(=O)(=O)N(C)c2ccccc2)c1 | – | inconclusive: 49.1%
53 | COc1ccc(C(=O)NC(=S)N(Cc2ccccc2)Cc2ccccc2)cc1 | inconclusive: 18.4 µM [cytotoxic, partial curve, poor fit] | –
54 | COc1ccc(F)cc1S(=O)(=O)N1CCC2(CC1)OCCN2S(=O)(=O)c1cccs1 | inconclusive: 4.61 µM [cytotoxic, full curve] | –
55 | CCOc1ccccc1NC(=O)CSc1nnnn1C1CCCC1 | inconclusive: 1.46 µM [cytotoxic, full curve] | –
56 | O=C(NCCN1CCOCC1)c1ccc(NS(=O)(=O)c2cccc([N+](=O)[O-])c2)cc1 | inconclusive: 7.31 µM [rising, partial curve, poor fit] | –
57 | Cc1ccc(Nc2ccc([N+](=O)[O-])cn2)cc1Cl | inconclusive: 20.6 µM [cytotoxic, partial curve] | –
58 | COc1cccc(COC(=O)C2CC(=O)N(Cc3ccco3)C2)c1OC (configuration not stated) | inactive | –
59 | O=C(CCS(=O)(=O)c1ccccc1)NC1CCCCC1 | inconclusive: 23.1 µM [rising, single point] | –
60 | O=C(CSc1ccc(-c2ccccc2)nn1)N1CCCCC1 | inconclusive: 10.3 µM [cytotoxic, partial curve] | –
61 | O=C(c1ccco1)N(CCC(c1ccccc1)c1ccco1)Cc1ccco1 (configuration not stated) | active: 13 µM | –
62 | COc1cccc(N(CC(=O)NCCSCc2ccco2)S(=O)(=O)c2ccccc2)c1 | inactive | –
63 | O=C(Nc1sc2c(c1C(=O)O)CCC2)c1ccccc1 | inconclusive: 29.1 µM [cytotoxic, single point] | –
64 | COC(=O)C1=C(c2ccc(OC)cc2)OC(=O)C1(C)C | inconclusive: 9.2 µM [rising, partial curve, poor fit] | –
65 | CCn1c(SCC(=O)Nc2cc(C)on2)nc2c1c(=O)n(C)c(=O)n2C | inactive | –
66 | COC(=O)CN1C(=S)N(c2ccccc2)C(=O)C1CC(=O)Nc1ccc(Cl)cc1 (configuration not stated) | inconclusive: 14.6 µM [cytotoxic, partial curve] | –
67 | CCCCCc1ccc(CC(=O)Nn2c(C)nc3ccccc3c2=O)cc1 | inconclusive: 29.1 µM [cytotoxic, single point] | –
